Values quoted from earlier work in patent US9624285B2, “Methods of treating diabetes and compositions capable of same” (Ramot a Tel-Aviv University Ltd., priority 2010, dated 2017).
At least one structure is not confirmed: it was looked up by name or label, or the drawing left a doubt.

Tested on: pancreatic cells
Conditions: inhibition of IAPP fibrillation; cited from earlier work

Structure (SMILES): CO[C@H]1/C=C/O[C@@]2(C)Oc3c(C)c(O)c4c(O)c(c(/C=N/N5CCN(C)CC5)c(O)c4c3C2=O)NC(=O)/C(C)=C\C=C\[C@H](C)[C@H](O)[C@@H](C)[C@@H](O)[C@@H](C)[C@H](OC(C)=O)[C@@H]1C [rifampicin]
- effect on IAPP toxicity towards pancreatic cells: did not inhibit toxicity towards pancreatic cells
